Measurements from PMC11110256.

Chains of the proteins cited; added tags and fusions are not shown.
UniProt O35129: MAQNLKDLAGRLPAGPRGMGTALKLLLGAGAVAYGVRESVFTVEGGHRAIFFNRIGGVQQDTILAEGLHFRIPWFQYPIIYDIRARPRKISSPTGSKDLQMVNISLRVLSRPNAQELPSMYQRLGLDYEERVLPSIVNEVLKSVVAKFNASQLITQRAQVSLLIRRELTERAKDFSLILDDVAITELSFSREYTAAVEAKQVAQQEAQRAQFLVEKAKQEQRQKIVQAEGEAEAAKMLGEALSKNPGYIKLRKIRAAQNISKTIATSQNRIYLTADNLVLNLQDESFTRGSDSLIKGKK

T1: UBX domain-containing protein 1 (UBXN1), immunoprecipitated from mouse Hepa1-6 cells (UniProt Q922Y1)
T1 sequence: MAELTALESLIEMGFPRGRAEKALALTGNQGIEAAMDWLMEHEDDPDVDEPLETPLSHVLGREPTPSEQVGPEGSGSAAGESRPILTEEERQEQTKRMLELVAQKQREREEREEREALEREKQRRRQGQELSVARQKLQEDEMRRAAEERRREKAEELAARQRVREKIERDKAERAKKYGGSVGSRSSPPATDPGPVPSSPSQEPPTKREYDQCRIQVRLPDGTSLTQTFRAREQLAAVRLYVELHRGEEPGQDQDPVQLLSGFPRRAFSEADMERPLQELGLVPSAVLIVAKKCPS

B1: Prohibitin (PHB), in mouse Hepa1-6 cells (protein, UniProt P67778 1-272)
chain: MAAKVFESIGKFGLALAVAGGVVNSALYNVDAGHRAVIFDRFRGVQDIVVGEGTHFLIPWVQKPIIFDCRSRPRNVPVITGSKDLQNVNITLRILFRPVASQLPRIYTSIGEDYDERVLPSITTEILKSVVARFDAGELITQRELVSRQVSDDLTERAATFGLILDDVSLTHLTFGKEFTEAVEAKQVAQQEAERARFVVEKAEQQKKAAIISAEGDSKAAELIANSLATAGDGLIELRKLEAAEDIAYQLSRSRNITYLPAGQSVLLQLPQ

Biological target: T1, UBX domain-containing protein 1 (UBXN1), immunoprecipitated from mouse Hepa1-6 cells
Assay: affinity purification with mass spectrometry; UBXN1 immunoprecipitated from lysates of MHCC97H and Hepa1-6 cells, SDS-PAGE, Coomassie stain, LC-MS/MS; hits with unique peptides > 2 in both cell lines

binding	Molecule
binds	Prohibitin 2 (PHB2), in mouse Hepa1-6 cells (from UniProt O35129 1-299)
binds	B1

No constants are given. Whether binding was seen depends on the method and setting. Binding seen in cells or lysates may run through a third protein. A yes stands for co-enrichment or nearness to the bait. Other partners may have been found.
